Values from PubChem BioAssay AID1259425 (University of Nebraska Medical Center, 2018).

Assay: 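Seek colon cancer weak points whose silencing resembles KSR1 loss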 (primary screen)
System: HCT116 human colon cancer cells
Reagent: siRNA pool against human genes, 50 nM siRNA
Measurement: 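After 50 nM siRNA pool, branched-DNA assay measures six marker transcripts per well, minus blank, normalised to the geometric mean of two housekeeping transcripts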
Scale: BNIP3L mRNA: higher = more BNIP3L transcript after knockdown
In all, the deposit lists about 14,000 reagents; shown is a random part of them. Not all columns of the deposit are shown. Not stated in the record: the time to read-out.

target	BNIP3L mRNA, set 1
SI (sucrase-isomaltase)	0.137
ELAVL2 (ELAV like RNA binding protein 2)	0.0845
TRIM36 (tripartite motif containing 36)	0.118
CELF6 (CUGBP Elav-like family member 6)	0.0641
FBXL12 (F-box and leucine rich repeat protein 12)	0.134
STAT5B (signal transducer and activator of transcription 5B)	0.0681
PDX1 (pancreatic and duodenal homeobox 1)	0.0552
MYL2 (myosin light chain 2)	0.0702
CNR1 (cannabinoid receptor 1)	0.0825
SEC24B (SEC24 homolog B, COPII component)	0.0772
SASH3 (SAM and SH3 domain containing 3)	0.0437
CXCR5 (C-X-C motif chemokine receptor 5)	0.153
TBC1D15 (TBC1 domain family member 15)	0.131
ZGPAT (zinc finger CCCH-type and G-patch domain containing)	0.173
IRF2BPL (interferon regulatory factor 2 binding protein like)	0.0774
MAP4K5 (mitogen-activated protein kinase kinase kinase kinase 5)	0.0639
SH3BGRL3 (SH3 domain binding glutamate rich protein like 3)	0.42
PRNP (prion protein (Kanno blood group))	0.229
PIGG	0.108

Continued; the last 2 above are carried over.
target	BNIP3L mRNA, set 1
PRNP (prion protein (Kanno blood group))	0.229
PIGG	0.108
PCDHA13 (protocadherin alpha 13)	0.0839
GPKOW (G-patch domain and KOW motifs)	0.108
NDUFB10 (NADH:ubiquinone oxidoreductase subunit B10)	0.151
COX16 (cytochrome c oxidase assembly factor COX16)	0.0978
HACL2 (2-hydroxyacyl-CoA lyase 2)	0.202
NUFIP2 (nuclear FMR1 interacting protein 2)	0.194
GDF2 (growth differentiation factor 2)	0.122
PSPC1 (paraspeckle component 1)	0.0999
SRP68 (signal recognition particle 68)	0.141
PPCDC (phosphopantothenoylcysteine decarboxylase)	0.0875
NNAT (neuronatin)	0.106
POLR1C (RNA polymerase I and III subunit C)	0.149
HNRNPC (heterogeneous nuclear ribonucleoprotein C)	0.0979
R3HCC1L (R3H domain and coiled-coil containing 1 like)	0.0802
CCT4 (chaperonin containing TCP1 subunit 4)	0.151
CYP20A1 (cytochrome P450 family 20 subfamily A member 1)	0.124
MGST3 (microsomal glutathione S-transferase 3)	0.137
PAM16 (presequence translocase associated motor 16)	0.121
SPIRE2 (spire type actin nucleation factor 2)	0.0963
ENDOG (endonuclease G)	0.0975
HERC1	0.0665
PHKB (phosphorylase kinase regulatory subunit beta)	0.0525
HERC3 (HECT and RLD domain containing E3 ubiquitin protein ligase 3)	0.141
CERT1 (ceramide transporter 1)	0.0657
FJX1 (four-jointed box kinase 1)	0.21
IGFBP5 (insulin like growth factor binding protein 5)	0.139
STAM (signal transducing adaptor molecule)	0.0917
HERPUD1	0.0995
ARRB1 (arrestin beta 1)	0.0946
RPLP1 (ribosomal protein lateral stalk subunit P1)	0.0765
ABCG2 (ATP binding cassette subfamily G member 2 (JR blood group))	0.0582
